Reference: PubChem BioAssay AID1224830 (NIAID, 2016)
Test: 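Host factors that control LPS-induced TNF expression in human macrophages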 (primary screen). System: human THP-1 monocytic leukaemia cells, TNF dual-luciferase reporter clone, PMA-differentiated to macrophage-like cells. Reagent: siRNA pool against human genes, 50 nM. Duration: LPS for 4 h, given about 3 days after siRNA transfection. Challenge: bacterial LPS (TLR4 ligand), 10 ng/ml. Measurement: 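TNF firefly reporter luminescence divided by renilla, normalised to the plate median, then turned into a robust z-score for each replicate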. Scale: TNF reporter robust z-score: higher = stronger TNF reporter response to LPS. Call rule: 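a well is active when its z-score exceeds 2.8 or falls below -1.5; control wells carry no call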.
This is one part, drawn at random, of about 18,000 deposited reagents. In the full data, about 2,900 (16%) were called active. 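Calls are made per well; low scores hint the gene aids the LPS response, high scores that it dampens it.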 Repeated entries: four replicate wells of each siRNA pool. No sequences are given here.

target gene,TNF reporter robust z-score,call
OGFR,-0.35,inactive
OGFR,0.09,inactive
OGFR,-0.36,inactive
OGFR,1.08,inactive
MRPS31,-1.03,inactive
MRPS31,-0.48,inactive
MRPS31,0.41,inactive
MRPS31,-1.29,inactive
ENPP3,-0.58,inactive
ENPP3,0.8,inactive
ENPP3,0.34,inactive
ENPP3,1.55,inactive
MATK,0.39,inactive
MATK,0.34,inactive
MATK,1.35,inactive
CCL4L2,0.3,inactive
CCL4L2,-0.35,inactive
CCL4L2,-0.67,inactive
CCL4L2,-0.6,inactive
C8orf82,0.96,inactive
C8orf82,1.37,inactive
C8orf82,1.28,inactive
C8orf82,0.89,inactive
TMEM161B,0.19,inactive
TMEM161B,0.73,inactive
TMEM161B,0.46,inactive
TMEM161B,0.89,inactive
VWC2L,-0.4,inactive
VWC2L,-0.19,inactive
VWC2L,-0.07,inactive
VWC2L,-0.04,inactive
CARTPT,-1.05,inactive
CARTPT,-0.96,inactive
CARTPT,-1.13,inactive
CARTPT,-0.8,inactive
HSD11B1,-0.11,inactive
HSD11B1,0.47,inactive
HSD11B1,0.72,inactive
HSD11B1,1.19,inactive

Further results follow.
target gene,TNF reporter robust z-score,call
SMARCD3,1.37,inactive
SMARCD3,1.67,inactive
SMARCD3,0.31,inactive
SMARCD3,-0.98,inactive
GNPDA2,0.78,inactive
GNPDA2,0.15,inactive
GNPDA2,0.36,inactive
GNPDA2,2.02,inactive
EIF4B,-1.07,inactive
EIF4B,-0.78,inactive
EIF4B,-0.83,inactive
EIF4B,-0.8,inactive
ACBD4,2.64,inactive
ACBD4,3.63,active
ACBD4,0.62,inactive
ACBD4,0.32,inactive
PLEKHH1,-0.12,inactive
PLEKHH1,1.18,inactive
PLEKHH1,0.65,inactive
PLEKHH1,1.16,inactive
ART1,2.62,inactive
ART1,3.01,active
ART1,2.88,active
ART1,2.17,inactive
OR9I1,-0.33,inactive
OR9I1,1.07,inactive
OR9I1,0.46,inactive
OR9I1,1.17,inactive
BCL9L,0.03,inactive
BCL9L,0.71,inactive
BCL9L,0.59,inactive
BCL9L,0.63,inactive
SFTA2,-0.85,inactive
SFTA2,-0.54,inactive
SFTA2,-0.45,inactive
SFTA2,-0.61,inactive
